This is one part of the list.
compound: C1=CC2=NC=CN=C2C=C1/C=C/3\C(=O)NC(=O)S3; experiment: log2 fold change, soluble protein after heating vs DMSO (PISA); higher = thermal stabilisation; K562 lysate, 10 uM; active = over 0.2 and 3.5 SD of the protein, either way, in both replicates (recomputed)
Summary of the method: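 Quantification was by TMTpro 16plex LC-MS/MS with equalised channel sums, applied to the supernatant after 21,000xg for 90 min. Samples were crude K562 extract at 1 mg/mL protein in PBS pH 7.4 with 1 mM MgCl2, treated with 10 μM compound for 30 min, heated for 3 min across 48°C-58°C, pooled and brought to 0.5% NP-40 at 4°C. Values are log-two fold changes in thermal stability relative to solvent controls, from duplicates.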

Protein sequences, listed by entry. Tags and fused reporters are not part of them. Lines headed by an entry give the natural chain unless they say otherwise; changes in a name come on top.
UniProt Q8N4C8: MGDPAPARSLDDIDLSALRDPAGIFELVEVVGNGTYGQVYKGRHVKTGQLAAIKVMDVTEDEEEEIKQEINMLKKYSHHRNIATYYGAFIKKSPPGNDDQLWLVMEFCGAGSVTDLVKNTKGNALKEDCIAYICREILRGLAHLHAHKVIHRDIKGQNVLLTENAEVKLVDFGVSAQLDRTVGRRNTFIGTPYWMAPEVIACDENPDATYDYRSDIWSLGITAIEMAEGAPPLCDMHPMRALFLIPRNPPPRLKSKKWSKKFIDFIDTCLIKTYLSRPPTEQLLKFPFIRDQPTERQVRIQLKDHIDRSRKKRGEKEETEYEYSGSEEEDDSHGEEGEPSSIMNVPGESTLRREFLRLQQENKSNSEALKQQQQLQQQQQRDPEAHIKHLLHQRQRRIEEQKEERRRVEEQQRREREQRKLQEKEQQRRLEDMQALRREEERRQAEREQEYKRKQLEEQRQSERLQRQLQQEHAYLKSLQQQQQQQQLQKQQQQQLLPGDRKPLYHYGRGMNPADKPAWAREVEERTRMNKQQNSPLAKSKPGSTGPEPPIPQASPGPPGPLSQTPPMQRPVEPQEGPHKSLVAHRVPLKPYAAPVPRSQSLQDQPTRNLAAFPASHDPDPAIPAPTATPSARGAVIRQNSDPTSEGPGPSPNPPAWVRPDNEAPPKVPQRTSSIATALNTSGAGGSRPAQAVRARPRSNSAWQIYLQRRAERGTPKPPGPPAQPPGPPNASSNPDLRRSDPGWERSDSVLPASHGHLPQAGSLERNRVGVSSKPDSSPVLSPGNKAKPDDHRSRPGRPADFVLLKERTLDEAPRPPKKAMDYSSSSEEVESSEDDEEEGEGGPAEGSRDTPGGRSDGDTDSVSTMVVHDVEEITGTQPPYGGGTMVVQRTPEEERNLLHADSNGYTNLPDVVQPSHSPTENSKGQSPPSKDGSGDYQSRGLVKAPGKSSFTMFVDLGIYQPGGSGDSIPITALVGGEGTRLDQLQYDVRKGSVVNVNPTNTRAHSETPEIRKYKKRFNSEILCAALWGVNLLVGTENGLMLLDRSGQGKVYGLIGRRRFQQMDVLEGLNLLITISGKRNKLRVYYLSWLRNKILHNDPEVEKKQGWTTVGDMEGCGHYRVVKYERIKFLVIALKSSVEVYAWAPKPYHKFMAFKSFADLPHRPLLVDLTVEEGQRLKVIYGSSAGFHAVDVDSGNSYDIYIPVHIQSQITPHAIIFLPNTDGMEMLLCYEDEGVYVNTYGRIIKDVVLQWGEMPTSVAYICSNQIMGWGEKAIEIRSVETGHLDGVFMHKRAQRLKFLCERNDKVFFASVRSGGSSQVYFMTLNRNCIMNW
UniProt P14174: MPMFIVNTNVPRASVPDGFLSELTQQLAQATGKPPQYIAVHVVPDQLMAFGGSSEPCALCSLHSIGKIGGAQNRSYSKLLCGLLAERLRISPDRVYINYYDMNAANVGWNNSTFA
UniProt Q13724: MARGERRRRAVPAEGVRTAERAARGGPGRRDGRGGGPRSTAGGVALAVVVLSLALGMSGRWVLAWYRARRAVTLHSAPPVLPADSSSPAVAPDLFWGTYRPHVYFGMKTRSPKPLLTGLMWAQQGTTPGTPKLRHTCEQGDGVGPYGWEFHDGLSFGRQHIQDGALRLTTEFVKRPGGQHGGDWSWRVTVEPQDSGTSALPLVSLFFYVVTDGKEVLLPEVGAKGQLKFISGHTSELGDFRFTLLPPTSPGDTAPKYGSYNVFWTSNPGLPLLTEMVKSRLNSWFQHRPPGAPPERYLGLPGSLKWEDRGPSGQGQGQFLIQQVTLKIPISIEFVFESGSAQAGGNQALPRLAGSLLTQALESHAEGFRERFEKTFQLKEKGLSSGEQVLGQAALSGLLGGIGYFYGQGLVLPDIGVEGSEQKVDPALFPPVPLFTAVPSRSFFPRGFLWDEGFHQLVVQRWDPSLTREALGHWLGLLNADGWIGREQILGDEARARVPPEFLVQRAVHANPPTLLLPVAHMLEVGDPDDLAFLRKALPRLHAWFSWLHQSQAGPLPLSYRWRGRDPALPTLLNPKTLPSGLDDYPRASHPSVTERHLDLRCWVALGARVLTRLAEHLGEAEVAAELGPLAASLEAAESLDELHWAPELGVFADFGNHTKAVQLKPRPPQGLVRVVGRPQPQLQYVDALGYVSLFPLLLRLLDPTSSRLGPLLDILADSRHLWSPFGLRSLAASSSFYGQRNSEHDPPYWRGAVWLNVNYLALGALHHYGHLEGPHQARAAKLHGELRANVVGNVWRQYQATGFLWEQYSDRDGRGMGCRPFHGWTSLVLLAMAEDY
UniProt Q5TGZ0: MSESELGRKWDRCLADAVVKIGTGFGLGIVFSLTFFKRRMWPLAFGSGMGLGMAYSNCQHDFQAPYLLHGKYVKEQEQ
UniProt Q9BQP7: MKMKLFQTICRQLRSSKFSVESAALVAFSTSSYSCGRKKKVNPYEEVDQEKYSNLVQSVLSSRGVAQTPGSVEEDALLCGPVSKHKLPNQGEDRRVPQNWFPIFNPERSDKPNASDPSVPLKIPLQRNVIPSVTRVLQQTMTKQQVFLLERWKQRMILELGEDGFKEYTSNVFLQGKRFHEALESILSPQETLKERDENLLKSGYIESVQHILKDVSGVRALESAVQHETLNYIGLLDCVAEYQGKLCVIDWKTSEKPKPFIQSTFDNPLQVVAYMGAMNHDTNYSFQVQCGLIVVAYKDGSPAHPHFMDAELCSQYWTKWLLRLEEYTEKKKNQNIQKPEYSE
UniProt Q9HC36: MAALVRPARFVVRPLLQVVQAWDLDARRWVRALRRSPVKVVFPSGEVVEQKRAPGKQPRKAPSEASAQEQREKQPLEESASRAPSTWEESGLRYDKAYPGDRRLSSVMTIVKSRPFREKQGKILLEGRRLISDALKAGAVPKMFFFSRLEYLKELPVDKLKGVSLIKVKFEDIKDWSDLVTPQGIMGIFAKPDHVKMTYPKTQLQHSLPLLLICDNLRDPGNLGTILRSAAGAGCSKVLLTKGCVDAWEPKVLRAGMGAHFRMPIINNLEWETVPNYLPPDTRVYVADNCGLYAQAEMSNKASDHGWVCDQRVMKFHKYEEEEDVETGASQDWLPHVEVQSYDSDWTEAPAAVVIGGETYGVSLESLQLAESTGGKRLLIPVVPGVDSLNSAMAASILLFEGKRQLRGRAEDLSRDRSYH
UniProt P22033: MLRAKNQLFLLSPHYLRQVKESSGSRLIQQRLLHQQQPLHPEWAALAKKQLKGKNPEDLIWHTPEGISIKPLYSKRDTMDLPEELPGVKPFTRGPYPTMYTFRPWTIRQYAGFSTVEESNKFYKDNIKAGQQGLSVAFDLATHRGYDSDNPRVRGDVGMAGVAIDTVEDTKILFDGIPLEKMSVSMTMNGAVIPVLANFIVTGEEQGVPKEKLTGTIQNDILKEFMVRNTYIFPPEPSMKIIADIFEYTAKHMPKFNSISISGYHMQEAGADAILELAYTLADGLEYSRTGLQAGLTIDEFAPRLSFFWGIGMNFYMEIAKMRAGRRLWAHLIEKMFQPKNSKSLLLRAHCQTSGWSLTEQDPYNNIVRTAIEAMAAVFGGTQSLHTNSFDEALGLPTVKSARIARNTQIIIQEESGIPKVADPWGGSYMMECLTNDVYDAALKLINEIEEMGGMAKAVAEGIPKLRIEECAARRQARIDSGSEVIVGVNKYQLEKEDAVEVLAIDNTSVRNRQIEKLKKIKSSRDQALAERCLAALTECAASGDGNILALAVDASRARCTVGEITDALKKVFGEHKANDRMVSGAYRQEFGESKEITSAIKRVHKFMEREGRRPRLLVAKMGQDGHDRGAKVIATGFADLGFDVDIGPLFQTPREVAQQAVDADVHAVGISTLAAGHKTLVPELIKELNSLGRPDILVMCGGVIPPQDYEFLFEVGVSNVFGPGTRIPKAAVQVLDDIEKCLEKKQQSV
UniProt Q70IA6: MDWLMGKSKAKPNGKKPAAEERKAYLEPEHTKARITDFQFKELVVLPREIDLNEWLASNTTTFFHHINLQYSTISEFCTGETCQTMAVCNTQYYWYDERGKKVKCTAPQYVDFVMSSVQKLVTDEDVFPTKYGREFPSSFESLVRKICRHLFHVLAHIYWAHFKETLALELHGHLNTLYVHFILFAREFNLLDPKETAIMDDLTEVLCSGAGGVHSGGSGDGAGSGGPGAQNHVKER
UniProt P50219: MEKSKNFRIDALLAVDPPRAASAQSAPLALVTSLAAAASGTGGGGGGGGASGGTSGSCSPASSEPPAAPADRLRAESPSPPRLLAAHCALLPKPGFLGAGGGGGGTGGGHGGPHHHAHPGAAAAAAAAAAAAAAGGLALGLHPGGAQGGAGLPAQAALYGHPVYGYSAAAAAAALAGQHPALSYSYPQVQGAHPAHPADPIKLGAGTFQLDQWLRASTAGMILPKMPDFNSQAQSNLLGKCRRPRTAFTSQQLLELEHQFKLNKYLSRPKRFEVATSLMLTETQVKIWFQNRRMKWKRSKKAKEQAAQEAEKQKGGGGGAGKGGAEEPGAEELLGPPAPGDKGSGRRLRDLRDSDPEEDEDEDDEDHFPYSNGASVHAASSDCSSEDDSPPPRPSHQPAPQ
UniProt Q03111: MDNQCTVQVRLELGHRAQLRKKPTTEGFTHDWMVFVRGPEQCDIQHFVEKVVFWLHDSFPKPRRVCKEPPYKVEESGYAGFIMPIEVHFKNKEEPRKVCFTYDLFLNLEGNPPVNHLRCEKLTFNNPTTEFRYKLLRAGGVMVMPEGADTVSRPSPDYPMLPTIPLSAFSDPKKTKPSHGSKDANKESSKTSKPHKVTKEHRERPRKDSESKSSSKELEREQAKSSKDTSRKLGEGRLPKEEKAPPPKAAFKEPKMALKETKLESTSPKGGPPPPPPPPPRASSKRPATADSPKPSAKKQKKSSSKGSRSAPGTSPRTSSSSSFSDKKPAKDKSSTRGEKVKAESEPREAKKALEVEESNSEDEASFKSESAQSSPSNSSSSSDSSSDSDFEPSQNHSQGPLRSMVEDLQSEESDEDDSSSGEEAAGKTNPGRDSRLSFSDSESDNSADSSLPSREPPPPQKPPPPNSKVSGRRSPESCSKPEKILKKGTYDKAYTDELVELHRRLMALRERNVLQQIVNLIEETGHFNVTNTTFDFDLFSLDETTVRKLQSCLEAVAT
UniProt Q96BX8: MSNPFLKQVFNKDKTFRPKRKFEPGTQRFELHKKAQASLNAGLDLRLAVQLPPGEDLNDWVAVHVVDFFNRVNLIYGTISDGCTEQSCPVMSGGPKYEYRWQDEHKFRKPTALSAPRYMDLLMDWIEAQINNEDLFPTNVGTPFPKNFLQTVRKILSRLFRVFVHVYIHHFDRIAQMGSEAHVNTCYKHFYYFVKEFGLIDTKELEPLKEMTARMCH
UniProt Q9H3L0: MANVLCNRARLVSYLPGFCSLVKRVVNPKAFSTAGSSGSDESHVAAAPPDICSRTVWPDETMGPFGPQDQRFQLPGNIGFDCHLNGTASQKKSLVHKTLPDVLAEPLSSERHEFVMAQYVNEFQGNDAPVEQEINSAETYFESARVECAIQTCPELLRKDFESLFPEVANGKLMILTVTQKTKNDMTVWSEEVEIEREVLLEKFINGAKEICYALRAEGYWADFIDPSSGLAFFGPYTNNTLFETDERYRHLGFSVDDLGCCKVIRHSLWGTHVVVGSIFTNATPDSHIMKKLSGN
UniProt O95297: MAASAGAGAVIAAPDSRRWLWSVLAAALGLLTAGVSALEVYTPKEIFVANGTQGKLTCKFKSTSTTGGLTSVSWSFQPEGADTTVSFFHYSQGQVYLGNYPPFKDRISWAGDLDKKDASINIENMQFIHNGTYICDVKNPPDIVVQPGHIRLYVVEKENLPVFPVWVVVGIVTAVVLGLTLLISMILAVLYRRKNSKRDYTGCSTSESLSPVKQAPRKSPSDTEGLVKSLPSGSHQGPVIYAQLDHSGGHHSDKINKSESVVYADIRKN
UniProt Q8TAP9: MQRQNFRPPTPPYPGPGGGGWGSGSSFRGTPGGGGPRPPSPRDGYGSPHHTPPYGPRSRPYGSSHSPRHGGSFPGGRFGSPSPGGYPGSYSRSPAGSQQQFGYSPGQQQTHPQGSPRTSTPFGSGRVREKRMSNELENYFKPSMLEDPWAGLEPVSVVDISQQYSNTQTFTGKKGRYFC
UniProt Q7L1V2: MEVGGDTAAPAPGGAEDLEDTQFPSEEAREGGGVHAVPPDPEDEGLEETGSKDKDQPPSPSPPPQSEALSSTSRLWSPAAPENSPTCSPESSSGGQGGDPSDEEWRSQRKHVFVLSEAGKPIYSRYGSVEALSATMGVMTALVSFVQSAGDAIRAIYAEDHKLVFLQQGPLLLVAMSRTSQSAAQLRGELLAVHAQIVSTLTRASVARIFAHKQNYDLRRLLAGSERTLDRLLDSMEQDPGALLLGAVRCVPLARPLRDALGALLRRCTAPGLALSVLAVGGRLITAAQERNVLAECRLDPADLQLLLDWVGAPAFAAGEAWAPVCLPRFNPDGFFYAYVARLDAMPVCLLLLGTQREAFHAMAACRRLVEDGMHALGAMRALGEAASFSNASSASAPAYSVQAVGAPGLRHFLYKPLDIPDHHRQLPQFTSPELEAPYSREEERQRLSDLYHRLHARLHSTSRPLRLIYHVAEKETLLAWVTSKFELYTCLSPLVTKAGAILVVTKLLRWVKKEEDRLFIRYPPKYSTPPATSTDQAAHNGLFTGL

log2 fold change, inactive:
MOB1B isoform 2 (UniProt Q7L9L4) 0.015
MINK1 (UniProt Q8N4C8) 0.045
MKRN2 (UniProt Q9H000) -0.025
MIF (UniProt P14174) -0.007
MOGS (UniProt Q13724) -0.003
MICOS10 (UniProt Q5TGZ0) -0.06
MICB, A0A140T979 -0.168
MMTAG2 (UniProt Q9BU76) -0.056
MPST isoform 2 (UniProt P25325) 0.032
MRPL14 (UniProt Q6P1L8) -0.048
MRPL23 (UniProt Q16540) -0.021
MGME1 (UniProt Q9BQP7) -0.012
MRM3 (UniProt Q9HC36) -0.035
MLXIP (UniProt Q9HAP2) -0.017
MPP6 (UniProt Q9NZW5) 0
MMUT (UniProt P22033) -0.045
MKLN1 (UniProt Q9UL63) -0.007
MPHOSPH10 (UniProt O00566) -0.017
MOCS1 isoform 8 (UniProt Q9NZB8) -0.008
MOB2 isoform 3 (UniProt Q70IA6) 0.045
MORF4L1 isoform 2 (UniProt Q9UBU8) -0.032
MINPP1 (UniProt Q9UNW1) -0.011
MNX1 (UniProt P50219) 0.138
MLLT1 (UniProt Q03111) -0.044
MRPL19 (UniProt P49406) -0.007
MPRIP isoform 2 (UniProt Q6WCQ1) -0.016
MOCS3 (UniProt O95396) -0.011
MICAL3 (UniProt Q7RTP6) -0.023
MOB3A (UniProt Q96BX8) 0.045
MMADHC (UniProt Q9H3L0) 0
MPZL1 (UniProt O95297) -0.042
MIS12 (UniProt Q9H081) -0.01
MPLKIP (UniProt Q8TAP9) 0.031
MKRN1 (UniProt Q9UHC7) 0.031
MMAB (UniProt Q96EY8) -0.022
MON1B (UniProt Q7L1V2) 0.006
MGST1 (UniProt P10620) 0.024
MLF2 (UniProt Q15773) 0.054

2 entries drawn at random from the list so far:
log2 fold change, inactive:
MICAL3 (UniProt Q7RTP6) -0.023
MRPL23 (UniProt Q16540) -0.021

Source: the supplement of paper PMC10849652
